The values that follow come from publication PMC5034320, “Modulation of yeast telomerase activity by Cdc13 and Est1 in vitro”.

Where a chain is given by its changes, count along the chain named. For some assays here: A negative result means that nothing was seen under these conditions. For some assays here: At least one verdict was read from the data and is not stated in words by the source. Tags and fusion partners may be left off the protein sequences shown. For some assays here: Construct, isoform or probe ends are uncertain for at least one entry. For some assays here: The comparison behind a weaker result is the experiment's own reference, which may not be listed here.

Series [1] deals with T1, Cdc13 (Saccharomyces cerevisiae) (UniProt P32797).
T1 sequence (looked up, limits assumed): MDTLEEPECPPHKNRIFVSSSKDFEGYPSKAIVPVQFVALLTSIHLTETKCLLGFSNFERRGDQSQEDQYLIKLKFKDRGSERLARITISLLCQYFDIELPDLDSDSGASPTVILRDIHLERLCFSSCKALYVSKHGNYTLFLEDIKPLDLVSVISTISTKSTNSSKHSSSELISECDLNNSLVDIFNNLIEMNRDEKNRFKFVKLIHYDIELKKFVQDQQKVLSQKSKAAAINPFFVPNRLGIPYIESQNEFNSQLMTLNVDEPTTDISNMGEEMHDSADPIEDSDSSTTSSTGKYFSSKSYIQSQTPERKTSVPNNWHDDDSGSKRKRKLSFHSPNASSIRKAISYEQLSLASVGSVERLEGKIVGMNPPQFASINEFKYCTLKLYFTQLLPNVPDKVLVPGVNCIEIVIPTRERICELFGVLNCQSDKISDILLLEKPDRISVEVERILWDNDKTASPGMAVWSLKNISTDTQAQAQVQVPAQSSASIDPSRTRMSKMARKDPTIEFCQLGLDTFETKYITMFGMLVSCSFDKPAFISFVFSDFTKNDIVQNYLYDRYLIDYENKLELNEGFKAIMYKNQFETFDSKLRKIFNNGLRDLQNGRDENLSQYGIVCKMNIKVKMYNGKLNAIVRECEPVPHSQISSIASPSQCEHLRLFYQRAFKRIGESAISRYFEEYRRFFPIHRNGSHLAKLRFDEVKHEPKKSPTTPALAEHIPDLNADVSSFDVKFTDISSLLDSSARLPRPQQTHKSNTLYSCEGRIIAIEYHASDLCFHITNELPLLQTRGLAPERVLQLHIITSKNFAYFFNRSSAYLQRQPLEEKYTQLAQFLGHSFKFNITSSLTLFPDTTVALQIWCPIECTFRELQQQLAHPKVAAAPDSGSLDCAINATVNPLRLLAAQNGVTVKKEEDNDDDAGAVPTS
Description: DMS footprinting. Particulars: plus Est1 100-900 nM, protected G residues exposed at 3' end, dose-dependent; 3'-NH2 on C20; DMS footprint: 50 mM cacodylate pH 7.0, 25 C 10 min, then 0.05% DMS 22 C 15 min; recombinant protein; protein details: 6xHis; label: 5'-32P on T21.

In series [2] the target is T2, Est1 (Saccharomyces cerevisiae) (UniProt P17214).
T2 sequence (looked up, limits assumed): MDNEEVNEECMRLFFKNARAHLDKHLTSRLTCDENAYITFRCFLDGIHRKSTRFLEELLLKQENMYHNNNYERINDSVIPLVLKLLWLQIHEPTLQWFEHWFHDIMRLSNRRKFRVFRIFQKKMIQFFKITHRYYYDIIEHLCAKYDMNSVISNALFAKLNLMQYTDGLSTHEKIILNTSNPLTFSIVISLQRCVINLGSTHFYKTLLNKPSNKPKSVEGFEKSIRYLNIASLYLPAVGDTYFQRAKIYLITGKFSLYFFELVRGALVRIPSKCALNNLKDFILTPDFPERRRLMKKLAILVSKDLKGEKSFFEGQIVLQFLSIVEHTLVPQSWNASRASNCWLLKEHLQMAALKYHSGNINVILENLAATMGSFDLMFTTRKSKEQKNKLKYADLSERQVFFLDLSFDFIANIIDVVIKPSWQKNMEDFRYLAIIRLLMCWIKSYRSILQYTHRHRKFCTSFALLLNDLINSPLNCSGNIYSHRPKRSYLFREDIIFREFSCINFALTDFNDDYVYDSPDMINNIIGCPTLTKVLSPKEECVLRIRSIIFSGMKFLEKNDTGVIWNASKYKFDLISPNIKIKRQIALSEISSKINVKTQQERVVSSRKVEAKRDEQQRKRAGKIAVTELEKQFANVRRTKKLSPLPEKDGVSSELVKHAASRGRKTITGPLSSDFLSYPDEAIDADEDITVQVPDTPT
Description: DMS footprinting. Particulars: 900 nM Est1 alone, cleavage pattern unchanged; 3'-NH2 on C20; DMS footprint: 50 mM cacodylate pH 7.0, 25 C 10 min, then 0.05% DMS 22 C 15 min; recombinant protein; protein details: 6xHis; label: 5'-32P on T21.

Series [3] has as its target T1, Cdc13 (Saccharomyces cerevisiae). Description: EMSA. Particulars: plus Est1-TAP 80 or 240 nM, binding slightly decreased; 3'-NH2 on C20; EMSA: room temperature 5 min (30 C in Fig 5E), 30 nM DNA, 6% native gel, buffer not stated; recombinant protein; protein details: 6xHis; label: 5'-32P on T21.
In series [4] the target is T3, Cdc13-BD R635C (Saccharomyces cerevisiae) (UniProt P32797).
T3 sequence (looked up): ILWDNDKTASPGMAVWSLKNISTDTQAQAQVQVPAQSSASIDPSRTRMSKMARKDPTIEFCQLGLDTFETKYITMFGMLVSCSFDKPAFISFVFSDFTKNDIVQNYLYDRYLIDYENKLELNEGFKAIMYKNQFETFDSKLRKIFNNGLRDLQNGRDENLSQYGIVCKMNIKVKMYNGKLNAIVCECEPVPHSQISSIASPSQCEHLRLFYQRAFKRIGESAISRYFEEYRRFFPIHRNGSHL
Nature of the series: EMSA. Particulars: 20-80 nM protein, 30 nM DNA, 6% native gel, buffer not stated, recombinant protein, residues 451-693, protein details: 6xHis. A general note: A gel shift assay detects complexes by their altered migration in electrophoresis.

Series [5] deals with T4, Cdc13-BD (Saccharomyces cerevisiae) (UniProt P32797).
T4 sequence (looked up): T3 sequence (looked up) with C185R
Nature of the series: EMSA. Conditions: 20-80 nM protein, 30 nM DNA, 3'-NH2 on C20, EMSA: room temperature 5 min (30 C in Fig 5E), 6% native gel, buffer not stated, recombinant protein, residues 451-693, protein details: 6xHis, label: 5'-32P on T21.

Series [6] has as its target T5, Cdc13-BD Y522C (Saccharomyces cerevisiae) (UniProt P32797).
T5 sequence (looked up): T3 sequence (looked up) with Y72C, C185R
Nature of the series: EMSA. Conditions: 20-80 nM protein, 30 nM DNA, 6% native gel, buffer not stated, recombinant protein, residues 451-693, protein details: 6xHis.

Where [7] appears, read: 3'-NH2 on C20, EMSA: room temperature 5 min (30 C in Fig 5E), label: 5'-32P on T21.
The mark [8] stands for this setting: EMSA: room temperature 5 min (30 C in Fig 5E), label: 5'-32P, single-stranded DNA.

For “ATGGCTAGGTAGCCGAATTGCGTAGGTGGGTGTGGTGTGTGTGGG / CCCACCTACGCAATTCGGCTACCTAGCCAT [T21/C20 tailed duplex]”, the binding result in series [1] was “binds more weakly”; in series [2] it was “no binding”; in series [3], “binds more weakly”; in series [4] (setting [7]), “no binding”; in series [5], “binds”; in series [6] (setting [7]) it was “no binding”.
For the sequence “ATGGCTAGGTAGCCGAATTGCGTAGGTGGGTGTGGTGTGTGTGGG [T21]”, the binding result in series [4] (setting [8]) and in series [6] (setting [8]) was “no binding” throughout.
